Test results from publication PMC9254479.
Results are given in words; binding and its absence hold for the method and conditions named. In cells and extracts the contact can be indirect. Some binding calls cover weakened binding; strength is not graded here.

Sequences of proteins named here, by UniProt entry; tags and fusion partners are left off.
UniProt Q16531: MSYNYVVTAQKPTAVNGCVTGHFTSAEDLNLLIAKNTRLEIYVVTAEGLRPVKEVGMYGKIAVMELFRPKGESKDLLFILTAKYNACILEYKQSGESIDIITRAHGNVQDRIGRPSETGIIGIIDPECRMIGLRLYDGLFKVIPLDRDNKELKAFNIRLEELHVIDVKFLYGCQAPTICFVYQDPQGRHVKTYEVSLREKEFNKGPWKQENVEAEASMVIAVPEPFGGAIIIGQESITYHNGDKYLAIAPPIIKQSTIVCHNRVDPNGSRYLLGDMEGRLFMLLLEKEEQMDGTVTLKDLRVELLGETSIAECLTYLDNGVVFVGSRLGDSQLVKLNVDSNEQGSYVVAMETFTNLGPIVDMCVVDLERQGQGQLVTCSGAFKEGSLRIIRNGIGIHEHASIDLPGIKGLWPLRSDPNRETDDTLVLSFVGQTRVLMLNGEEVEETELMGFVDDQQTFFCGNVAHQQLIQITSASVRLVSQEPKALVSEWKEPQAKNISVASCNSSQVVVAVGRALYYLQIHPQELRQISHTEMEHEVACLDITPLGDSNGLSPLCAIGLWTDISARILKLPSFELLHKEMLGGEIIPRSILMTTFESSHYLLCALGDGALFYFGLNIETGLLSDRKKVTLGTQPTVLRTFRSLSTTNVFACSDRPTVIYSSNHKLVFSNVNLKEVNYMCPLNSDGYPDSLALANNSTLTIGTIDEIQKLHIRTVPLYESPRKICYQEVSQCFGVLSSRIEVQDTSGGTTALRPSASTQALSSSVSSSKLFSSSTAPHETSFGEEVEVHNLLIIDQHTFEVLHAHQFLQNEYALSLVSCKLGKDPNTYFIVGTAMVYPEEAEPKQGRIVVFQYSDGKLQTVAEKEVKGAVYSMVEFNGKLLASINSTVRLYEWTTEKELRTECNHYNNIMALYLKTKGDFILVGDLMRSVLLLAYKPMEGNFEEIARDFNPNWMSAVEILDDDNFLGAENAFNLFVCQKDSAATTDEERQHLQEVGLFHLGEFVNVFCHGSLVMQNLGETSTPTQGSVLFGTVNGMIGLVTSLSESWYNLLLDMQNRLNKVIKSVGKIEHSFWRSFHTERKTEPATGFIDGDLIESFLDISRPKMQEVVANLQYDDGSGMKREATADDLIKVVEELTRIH
UniProt Q92466: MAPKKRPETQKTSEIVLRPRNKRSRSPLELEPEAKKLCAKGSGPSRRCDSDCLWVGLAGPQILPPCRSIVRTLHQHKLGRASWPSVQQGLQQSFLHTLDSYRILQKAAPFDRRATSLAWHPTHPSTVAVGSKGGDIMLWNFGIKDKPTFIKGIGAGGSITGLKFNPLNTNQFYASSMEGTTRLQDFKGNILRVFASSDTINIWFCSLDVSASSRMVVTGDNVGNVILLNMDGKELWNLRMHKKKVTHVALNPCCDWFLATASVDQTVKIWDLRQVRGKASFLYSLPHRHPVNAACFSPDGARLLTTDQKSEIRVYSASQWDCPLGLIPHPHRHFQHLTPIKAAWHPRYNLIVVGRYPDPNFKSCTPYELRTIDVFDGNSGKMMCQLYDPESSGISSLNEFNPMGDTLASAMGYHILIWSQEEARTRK
UniProt P46527: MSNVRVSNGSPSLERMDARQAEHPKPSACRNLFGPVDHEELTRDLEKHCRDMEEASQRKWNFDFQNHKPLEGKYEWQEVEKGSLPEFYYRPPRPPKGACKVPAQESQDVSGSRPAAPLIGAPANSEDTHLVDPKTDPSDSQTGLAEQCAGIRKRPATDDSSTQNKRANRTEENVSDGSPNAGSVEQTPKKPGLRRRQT

How the values were obtained:
[1] = biological target: damage-specific DNA-binding protein 1 (human (endogenous in MCF-7)) (UniProt Q16531); assay: co-IP; two-step IP combined with western blot, under hypoxia; circPFKFB4 RNA also in the complex
[2] = biological target: damage-specific DNA-binding protein 1 (human (endogenous in MCF-7)) (UniProt Q16531); assay: co-IP; anti-DDB1, anti-DDB2 or IgG on magnetic beads mixed with hypoxic MCF-7 cell lysates at 4 °C overnight; western blot; cells with circPFKFB4 overexpression or knockdown
[3] = biological target: damage-specific DNA-binding protein 2 (human (endogenous in MCF-7)) (UniProt Q92466); assay: co-IP; hypoxic BC cells transfected with circPFKFB4 overexpression plasmid or circPFKFB4 knockdown; antibody-coated magnetic beads with cell lysates at 4 °C overnight; western blot

Substance | binding [1] | binding [2] | binding [3]
damage-specific DNA-binding protein 2 (from UniProt Q92466 1-427) | binds | binds | 
p27 (from UniProt P46527 1-198) |  |  | binds
